The values below come from the supplement of paper PMC3047530.

Each structure is given as a SMILES string. The list shows a part of the results. Repeats are few or missing, and single values can be far off.

The assay concerns Geomyces destructans. Kind of assay: growth inhibition relative to DMSO control; higher = stronger growth inhibition. Particulars: 10 µM; 15 °C; incubation time 10 days.
As to `COC(=O)COc1cc(Cl)c(Cl)cc1Cl`, the growth inhibition amounted to 0.943%. With `CC(=O)OCC1=C(C(=O)O)N2C(=O)[C@@H](NC(=O)CCC[C@@H](N)C(=O)O)[C@H]2SC1` the figure was -10.5%; with `COc1c2c(cc3c1OCO3)CC[N+](C)=C2`, -13.3%; with `Cc1cccc(C)c1NC1=NCCCS1`, 1.41%. Next, `C[C@]12CCC(=O)C=C1CCc1ccc(O)cc12`: -5.7%.

Take `C[C@]12CC[C@H](Cl)C[C@@H]1CC[C@@H]1[C@@H]2CC[C@]2(C)C(=O)CC[C@@H]12` [3beta-CHLOROANDROSTANONE]: the growth inhibition is 8.52%. In the case of `C=C1[C@@H]2CCC3[C@@](CC[C@@H]4[C@H](C(=O)O)C[C@@H](O[C@@H]5O[C@H](CO)[C@@H](OS(=O)(=O)O)[C@H](OS(=O)(=O)O)[C@H]5OC(=O)CC(C)C)C[C@@]34C)(C2)[C@@H]1O` (stereo partly drawn), the growth inhibition was -11.6%. With `CC[C@H]1CN2CCc3cc(OC)c(OC)cc3[C@@H]2C[C@@H]1C[C@H]1NCCc2cc(OC)c(OC)cc21` the figure was -6.39%.

With `CNC(C)C(O)c1ccccc1` (stereo not drawn), the growth inhibition was -22.2%. Turning to `COc1ccc(C(=O)O[C@H]2CC[C@@]3(C)[C@@H]4CC[C@H]5[C@]6(O)C[C@H](O)[C@@]7(O)[C@@H](CN8C[C@@H](C)CC[C@H]8[C@@]7(C)O)[C@]6(O)C[C@@]53O[C@]24O)cc1OC`, the growth inhibition is -23.5%. As to `CO[C@H]1[C@H](O)[C@H](O[C@H]2CC[C@@]3(C)[C@H](CC[C@@H]4[C@@H]3CC[C@]3(C)[C@@H](C5=CC(=O)OC5)CC[C@]43O)C2)O[C@@H](C)[C@@H]1O`, the growth inhibition is -34.5%.

Take `COc1cc([C@@H]2c3cc4c(cc3[C@H](O)[C@H]3COC(=O)[C@H]23)OCO4)cc(OC)c1OC`: the growth inhibition was -2.76%. Next, `Cc1ccc(O)cc1.Cc1cccc(O)c1.Cc1ccccc1O`: -6.35%; `CC[C@H]1[C@@H]2C[C@H]3[C@@H]4N(C)c5ccccc5[C@]45C[C@@H]([C@@H]2[C@H]5O)N3[C@@H]1O`: -21.5%. With `C[C@@H]1CC[C@H]2[C@@H](C)C(=O)O[C@@H]3O[C@@]4(C)CC[C@@H]1[C@]32OO4` the figure was -0.953%. Next, `CN1[C@@H]2C[C@@H]3C[C@H]1[C@H](O)[C@H]2O3`: -3.08%.

As to `COc1ccc(C[C@H]2NC[C@H](O)[C@H]2OC(C)=O)cc1`, the growth inhibition is -13.3%. With `CC(C)N(C(=O)SCC(Cl)=C(Cl)Cl)C(C)C` the figure was -2.71%; with `CCc1cccc(C)c1N(C(=O)CCl)C(C)COC` (stereo not drawn), -5.15%. Next, `O=C1c2ccccc2C(=O)c2ccccc21`: 13.6%; `Oc1c(Cl)c(Cl)c(Cl)c(Cl)c1Cl`: -6.83%. In the case of `CNC(C)[C@H](O)c1ccccc1` (stereo partly drawn), the growth inhibition was -12.5%. Next, `CC(C)=CCCC1(C)C=Cc2c(O)c3c(c(CC=C(C)C)c2O1)OC12C(=CC4CC1C(C)(C)OC2(C/C=C(/C)C(=O)O)C4O)C3=O` (stereo not drawn): -9.36%; `COC[C@]12CN(C=O)[C@@H]3[C@@H]4[C@H](OC)[C@H]1[C@@]3([C@@H](OC)C[C@H]2O)[C@@H]1C[C@@]2(O)[C@H](OC(=O)c3ccccc3)[C@@H]1[C@]4(OC(C)=O)[C@@H](O)[C@@H]2OC`: -3.8%.

For `C[C@H]1C(=O)O[C@@H]2CCN3CC=C(COC(=O)[C@](C)(O)[C@]1(C)O)[C@H]23`, the growth inhibition is -11%. With `CO[C@]12C[C@@H](COC(=O)c3cncc(Br)c3)CN(C)[C@@H]1Cc1cn(C)c3cccc2c13` the figure was -32.5%; with `O=[N+]([O-])/N=C1\NCCN1Cc1ccc(Cl)nc1`, -2.71%.

`C/C=C(/C)C(=O)O[C@H]1CC[C@@]2(C)[C@@H]3CC[C@H]4[C@]5(O)C[C@H](O)[C@@]6(O)[C@@H](CN7C[C@@H](C)CC[C@H]7[C@@]6(C)O)[C@]5(O)C[C@]42O[C@]13O`: the growth inhibition was -34.9%.

`O=C(O)COc1cc(Cl)c(Cl)cc1Cl`: the growth inhibition was 90.4%. Next, `COc1cc2c(cc1OC)[C@@H]1C(=O)c3ccc4oc(C(C)C)cc4c3O[C@@H]1CO2`: -12.9%; `O=C(O)CCC1NCC2CC1CN1CCCCC21` (stereo not drawn): -20.4%; `C[N+]12CCC(CC1)C(OC(=O)C(O)(c1ccccc1)c1ccccc1)C2` (stereo not drawn): -9.69%. With `CN(C)C(=S)SSC(=S)N(C)C` the figure was 85.4%; with `O=C1NC(=O)C(=O)C(=O)N1`, -3.09%; with `CC(C)(C)NCC(O)c1ccccc1Cl` (stereo not drawn), -3.54%. For the compound `CC(=O)OC1CC(OC(C)=O)C2(C)C(CC(OC(C)=O)C3(C)C2CCC2(C)C(c4ccoc4)CC4OC423)C1(C)C` (stereo not drawn), the growth inhibition is -12%.

`CC(C)C[C@H]1C(=O)N2CCC[C@H]2[C@]2(O)O[C@](NC(=O)[C@@H]3C=C4c5cccc6[nH]c(Br)c(c56)C[C@H]4N(C)C3)(C(C)C)C(=O)N12`: the growth inhibition amounted to 9.25%. For the compound `CN1[C@@H]2CC[C@H]1C[C@@H](OC(=O)C(CO)c1ccccc1)C2` (stereo partly drawn), the growth inhibition is -16.4%. Next, `CCC(C)C(OC(C)=O)C(=O)OC1C(O)C2C3(C)C=CC(=O)C(C)(C)C3CC(OC(=O)C(O)C(C)C)C2(C)C23OC2CC(c2ccoc2)C13C` (stereo not drawn): -12.7%; `CN1[C@@H]2CC[C@H]1C[C@@H](OC(c1ccccc1)c1ccccc1N)C2` (stereo partly drawn): 16.6%. Next, `CN1Cc2c(ccc3c2OCO3)C2C(O)Cc3cc4c(cc3C21)OCO4` (stereo not drawn): 1%; `C[C@]12CCC(=O)C(O)=C1CC[C@@H]1[C@@H]2CC[C@]2(C)C(=O)CC[C@@H]12`: 4.68%.

On to `CCOP(=S)(OCC)Oc1cc(C)nc(C(C)C)n1`, for which the growth inhibition is -7.44%.

In the case of `CNC(C)(C)Cc1ccccc1`, the growth inhibition is -1.9%. With `CNC(Cc1c[nH]c2ccccc12)C(=O)O` (stereo not drawn) the figure was -12.3%.

As for `O=C(O)CCCOc1ccc(Cl)cc1Cl`, the growth inhibition is -2.87%.

As for `COc1ccc(C(CN(C)C)C2(O)CCCCC2)cc1` (stereo not drawn), the growth inhibition is -29.5%. With `COc1cc2c(cc1OC)-c1c(oc3c4c(ccc3c1=O)OC(C(C)C)C4)CO2` (stereo not drawn) the figure was 4.1%; with `CN1[C@H]2C[C@H](OC(=O)[C@H](CO)c3ccccc3)C[C@@H]1[C@@H](O)C2`, -37.4%.

In the case of `CN(C)C(=O)Oc1cccc([N+](C)(C)C)c1`, the growth inhibition is -10.1%.

For `COc1ccc(C(=O)O)cc1OC`, the growth inhibition was determined as 1.97%.

With `CN1CCc2cc3c(cc2C1O)OCO3` (stereo not drawn), the growth inhibition is -37.6%. With `COc1cccc2c1cc([N+](=O)[O-])c1c(C(=O)O)cc3c(c12)OCO3`, the growth inhibition worked out at 15.5%.

On to `COc1ccc(/C=C/c2cc(O)cc(O)c2)cc1`, for which the growth inhibition came to 6.39%. With `CC(=O)[O][Hg][c]1ccccc1` the figure was 91.1%.

`O=c1[nH]c2ccccc2n1C1CCN(CCCC(c2ccc(F)cc2)c2ccc(F)cc2)CC1`: the growth inhibition was -28.2%. In the case of `CC(=O)Nc1cc([As](=O)(O)O)ccc1O`, the growth inhibition was -4.87%. Next, `C/C=C(\C)C(=O)O[C@H]1C[C@@H](OC(C)=O)[C@@]2(C(=O)OC)CO[C@H]3[C@@H](O)[C@@](C)([C@]45O[C@@]4(C)[C@H]4C[C@@H]5O[C@@H]5OC=C[C@@]54O)[C@H]4[C@]1(CO[C@]4(O)C(=O)OC)[C@@H]32`: 5.21%; `Cc1cc2c(C(C)C)c(O)c(O)c(C=O)c2c(O)c1-c1c(C)cc2c(C(C)C)c(O)c(O)c(C=O)c2c1O`: 11.1%; `COc1c(CC=C(C)C)c2c(c3oc(=O)c(-c4ccc(O)cc4)c(O)c13)C=CC(C)(C)O2`: -4.92%. Next, `COc1cc2c(cc1OC)[C@@H]1C(=O)c3ccc(OC)c(CC=C(C)C)c3O[C@@H]1CO2`: -1.97%; `CN(C)C(=O)Oc1ccc[n+](C)c1`: -0.639%. Next, `c1cc2c(cc1[C@H]1OC[C@H]3[C@@H]1CO[C@H]3c1ccc3c(c1)OCO3)OCO2`: 7.02%. Take `C=C1[C@@H]([C@@]2(C)[C@@H](OC(C)=O)CC(=O)O[C@](C)(COC(C)=O)[C@@H]2C(=O)OC)[C@@H](OC=O)[C@H](OC(=O)[C@H](O)[C@H](C)CC)[C@@]2(C)[C@H](c3ccoc3)CC(=O)[C@]12O`: the growth inhibition was -16.9%. Next, `c1ccc2c(c1)[nH]c1cnccc12`: 11%. With `CCC(C)c1cnc(CC(C)C)c(=O)n1O` (stereo not drawn) the figure was 4.33%; with `COc1cc(C(=O)O)cc(OC)c1OC`, -5.49%; with `COC1=C[C@]23CCCN2CCc2cc4c(cc2[C@@H]3[C@@H]1O)OCO4`, -2.02%. Next, `NCCCNCCSP(=O)(O)O`: -9.53%; `CC(C)c1ccc2c(c1O)CC[C@H]1C3=C(CC[C@]21C)C(=O)OC3`: -4.09%.

As for `COc1cc2occc2c2oc(=O)ccc12`, the growth inhibition was -22.8%.

For the compound `CCCCCCCCC(=O)NCc1ccc(O)c(OC)c1`, the growth inhibition was -3.65%. Regarding `COc1cc2c(cc1O)C[C@H]1c3c(cc(O)c(OC)c3-2)CCN1C`, the growth inhibition was -2.18%. Next, `C[C@H]1CC[C@]2(NC1)O[C@H]1C[C@H]3[C@@H]4CC[C@H]5C[C@@H](O[C@@H]6O[C@H](CO)[C@H](O[C@@H]7O[C@H](CO)[C@@H](O)[C@H](O[C@@H]8OC[C@@H](O)[C@H](O)[C@H]8O)[C@H]7O[C@@H]7O[C@H](CO)[C@@H](O)[C@H](O)[C@H]7O)[C@H](O)[C@H]6O)CC[C@]5(C)[C@H]4CC[C@]3(C)[C@H]1[C@@H]2C`: -9.03%; `CC1(C)C(=O)C=C[C@@]2(C)C1=C(O)C(=O)[C@]1(C)[C@@H]2CC[C@@]2(C)[C@H](c3ccoc3)C[C@H]3O[C@]321`: -2.22%; `O=C1CCO1`: 7.52%. Next, `Cc1c(O)c(O)cc2c1CC=C1[C@@]2(C)CC[C@@]2(C)[C@@H]3C[C@](C)(C(=O)O)CC[C@]3(C)CC[C@]12C`: -0.882%; `CCOC(=O)NC1=C(N2CC2)C(=O)C(NC(=O)OCC)=C(N2CC2)C1=O`: -15.7%; `CC([C@H](O)c1ccccc1)N(C)C` (stereo partly drawn): -6.7%. With `COc1ccc(OC)c(C(O)C(C)N)c1` (stereo not drawn) the figure was -3.31%.

For `CCC(=O)O[C@H]1CC[C@H]2[C@@H]3CCC4=CC(=O)CC[C@]4(C)[C@H]3CC[C@]12C`, the growth inhibition was determined as 7.75%. Next, `CNC(=O)N(C)c1nnc(C(C)(C)C)s1`: -6.07%; `O=C1C(Cl)=C(Cl)C(=O)C(Cl)=C1Cl`: -32.3%; `C[C@@H]1CC[C@]2(NC1)O[C@H]1C[C@H]3[C@@H]4CC=C5C[C@@H](O)CC[C@]5(C)[C@H]4CC[C@]3(C)[C@H]1[C@@H]2C`: -15.8%. With `Oc1ccc(Cl)cc1Cc1cc(Cl)ccc1O` the figure was -18.6%; with `CC12CCC3C(CCC4(O)CC(O)CCC34/C=N/NC(N)=O)C1(O)CCC2C1=CC(=O)OC1` (stereo not drawn), -4.12%; with `Cl[C@H]1[C@H](Cl)[C@@H](Cl)[C@@H](Cl)[C@H](Cl)[C@H]1Cl`, -8.51%. With `CNC(=O)Oc1cccc2c1OC(C)(C)C2` the figure was -8.51%.
